From PubChem BioAssay AID540277 (National Center for Advancing Translational Sciences (NCATS), 2011)
Screen size: about 320,000 compounds; about 55 (0.02%) were called active. Listed are the inconclusive results; actives and inactives stand elsewhere. No stated cut-off is given here; in the data, active means potentiation above about 80%; inconclusive means between about 30% and that limit; inactive means weaker than that.

Amino acid sequences for entries named in this document (tags omitted).
UniProt Q8NER1, whole entry: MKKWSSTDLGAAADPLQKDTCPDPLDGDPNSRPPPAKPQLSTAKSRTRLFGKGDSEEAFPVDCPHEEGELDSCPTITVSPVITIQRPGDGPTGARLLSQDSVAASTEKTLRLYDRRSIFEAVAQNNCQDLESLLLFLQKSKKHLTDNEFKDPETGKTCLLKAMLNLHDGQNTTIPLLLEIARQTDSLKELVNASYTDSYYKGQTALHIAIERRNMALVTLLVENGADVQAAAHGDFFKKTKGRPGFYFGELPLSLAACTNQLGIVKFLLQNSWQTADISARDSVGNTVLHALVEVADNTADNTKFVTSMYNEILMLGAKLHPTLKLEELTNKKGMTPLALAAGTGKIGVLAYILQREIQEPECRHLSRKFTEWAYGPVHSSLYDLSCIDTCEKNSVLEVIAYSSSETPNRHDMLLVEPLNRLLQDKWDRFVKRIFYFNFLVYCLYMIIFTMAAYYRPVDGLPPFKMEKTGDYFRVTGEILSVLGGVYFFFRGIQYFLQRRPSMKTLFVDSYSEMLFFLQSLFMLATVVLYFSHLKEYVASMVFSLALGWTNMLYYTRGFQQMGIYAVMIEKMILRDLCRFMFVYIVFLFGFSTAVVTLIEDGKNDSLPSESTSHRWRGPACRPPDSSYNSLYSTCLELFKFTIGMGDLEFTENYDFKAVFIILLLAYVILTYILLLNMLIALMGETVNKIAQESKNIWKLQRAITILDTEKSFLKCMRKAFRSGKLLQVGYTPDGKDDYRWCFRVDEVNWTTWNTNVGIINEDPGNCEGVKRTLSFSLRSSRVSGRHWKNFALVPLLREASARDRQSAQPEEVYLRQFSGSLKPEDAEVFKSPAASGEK

Each molecule was assayed against Transient receptor potential cation channel subfamily V member 1 (Homo sapiens) (UniProt Q8NER1) (assay: HTS Assay for Compounds that Act as Potentiators of the Vanilloid Receptor 1). Details: TRPV1-expressing cells, Fluo-8 calcium influx, capsaicin EC20 potentiation.
Excerpt: The transient receptor potential ion channel, family V, number 1, (TRPV1) is one of the most important molecular transducers of painful stimuli and a potential target for analgesic drug development. Although recent clinical trials with orthosteric antagonists have not produced a successful drug because of a hyperthermia side effect and their tendency to block thermal noxious pain, this ion channel is undeniably well placed in the pain pathway, and the idea of blocking pain signals before they enter the CNS is an excellent concept and of proven efficacy when TRPV1 agonists are used. […]
Upon TRPV1 activation in TRPV1 cells, the channel opens and extracellular cations flow through the channel into the cytosol. […] The amount of accumulated calcium is precisely quantified using the FDSS kinetic reader and the calcium dye. […] Plates will be loaded into the FDSS kinetic reader and a 1 sec / cycle for 10 second baseline signal will be measured. Compound library will then be added with a pintool at 23 nl and measured kinetically for 3 minutes. This portion of the read is considered the agonist portion of the screen. […] Signal will be measured kinetically for an additional 2 minutes. This portion of the read is considered the allosteric enhancer portion of the screen. The FDSS reader has a standard filter set capable of measuring calcium bound Fluo-8 (ex=480 and em=520 nm).

| SMILES | outcome |
| --- | --- |
| CCOC(=O)c1ccc(NP(C)(=O)Oc2ccccc2)cc1 (configuration not stated) | inconclusive |
| COc1ccccc1OP(C)(=O)Nc1ccccc1Br (configuration not stated) | inconclusive |
